In PubChem BioAssay AID540276 (National Center for Advancing Translational Sciences (NCATS), 2011):
Hit rate of the full screen: of about 300,000 compounds, about 5,400 (1.8%) were called active. Inconclusive results, whose numbers are uncertain, are shown with a selection of clear calls. Calls follow the shape of the full dose curve; tested in HEK293 cells. Potencies of inconclusive entries are doubtful fits and often do not repeat.

Experiment: qHTS for inhibitors of binding or entry into cells for Marburg Virus
Details: Marburg virus pseudotyped entry inhibition, cell reporter; activity change, negative = inhibition: at 37.8 µM (top of the series) unless noted
% is scaled to controls: 0 for no effect and ±100 for the full control effect; potency is read from the fitted curve at half-maximal effect.

Structure (SMILES) | Potency | activity change, negative = inhibition
COc1ccc(NC(=O)c2sc(SC)nc2N)cc1 | inactive | –
Cc1ccc(-n2nc(C(=O)N(C)c3ccc(C)c(C)c3)c3c4ccccc4n(C)c3c2=O)cc1 | – | inactive: 0.82% [at 46.1 µM]
CCCCOP(=O)(c1ccc(N(C)C)cc1)C(O)c1cccnc1 (stereo unspecified) | – | inactive: 4.86%
COc1ccc(-c2csc3ncnc(NCCN4CCOCC4)c23)cc1 | inconclusive: 35.5 µM [inhibitor, single point] | –
CCN(CC)S(=O)(=O)c1ccc(C(=O)NC2=NCCS2)cc1 | – | inactive: 0.767% [at 46.1 µM]
O=C(/C=C/c1ccco1)NC(=S)Nc1ccccc1N1CCCC1 | inconclusive: 18.3 µM [inhibitor, single point] | –
COC(=O)c1ccc(Oc2nc(Nc3ccccc3)nc(N(C)C)n2)cc1 | – | inactive: -18.5%
CO[C@H](C1CCCCC1)[C@H](C)C=CCC(=O)OCCCc1ccccc1 | – | inactive: 5.36% [at 14.2 µM]
O=C(NCCOc1ccccc1)c1cc([N+](=O)[O-])ccc1N1CCOCC1 | inconclusive: 0.282 µM [inhibitor, full curve, poor fit] | –
COc1cc(C2c3c(-c4c(C)cc(C)cc4O)n[nH]c3C(=O)N2Cc2ccco2)cc(OC)c1OC (stereo unspecified) | – | inactive: 0.133% [at 46.1 µM]
COc1ccc2oc(-c3cccc(NC(=O)c4cc([N+](=O)[O-])ccc4N4CCOCC4)c3)nc2c1 | inconclusive: 11.2 µM [inhibitor, partial curve, poor fit] | –
Cc1cc(C)c2[nH]c(=O)c(C(c3nnnn3C3CCCC3)N3CCOCC3)cc2c1 (stereo unspecified) | – | inactive: -0.199%
CCCCOc1ccc(C(=O)NCc2ccco2)cc1 | inconclusive: 7.3 µM [activator, partial curve, poor fit] | –
N#Cc1ccc(-c2csc(NC(=O)c3ccc(S(=O)(=O)N4CCc5ccccc5C4)cc3)n2)cc1 | inconclusive: 11.2 µM [activator, partial curve] | –
CC(C)(C)c1cc(C(=O)NCC(=O)OCC(=O)c2cccc([N+](=O)[O-])c2)cc(C(C)(C)C)c1 | inconclusive: 5.62 µM [activator, single point] | –
O=C(N/N=C/C1CC2CCC1C2)c1ccc2c(c1)OCO2 (stereo unspecified) | – | inactive: -27.8%
CC(C)(C)n1nc2c(c1NC(=O)COc1ccc(Cl)cc1)CSC2 | inconclusive: 23.1 µM [inhibitor, single point] | –
Cc1ccc(Nc2nc(Cl)nc(N(C)C#N)n2)cc1 | inconclusive: 14.1 µM [inhibitor, single point] | –
COc1ccc(S(=O)(=O)N2CCCCCC2)cc1C(=O)N(C)CC(=O)Nc1c(Cl)cccc1Cl | – | inactive: -9.16%
Cn1c2ccccc2c2cc(/C=N/NC(=O)c3cc(O)cc(O)c3)ccc21 | inconclusive: 6.31 µM [inhibitor, single point] | –
O=C(NCc1ccc2c(c1)OCO2)c1ccco1 | – | inactive: 0.758% [at 46.1 µM]
Cc1ccc(-c2noc(C3CCCN(C(=O)c4ccc(Cl)cc4)C3)n2)o1 (stereo unspecified) | inconclusive: 29.1 µM [inhibitor, single point] | –
Cc1c(NP(=O)(C(C)(C)C)C(C)(C)C)c(=O)n(-c2ccccc2)n1C | inconclusive: 6.31 µM [inhibitor, single point] | –

In a second layout: 3 of the compounds above.
CO[C@H](C1CCCCC1)[C@H](C)C=CCC(=O)OCCCc1ccccc1
  activity change, negative = inhibition: inactive: 5.36% [at 14.2 µM]
O=C(NCCOc1ccccc1)c1cc([N+](=O)[O-])ccc1N1CCOCC1
  Potency: inconclusive: 0.282 µM [inhibitor, full curve, poor fit]
COc1cc(C2c3c(-c4c(C)cc(C)cc4O)n[nH]c3C(=O)N2Cc2ccco2)cc(OC)c1OC (stereo unspecified)
  activity change, negative = inhibition: inactive: 0.133% [at 46.1 µM]

Carrying on:

Structure (SMILES) | Potency | activity change, negative = inhibition
CCCCn1c(SCc2nc3ccccc3s2)nc2ccccc2c1=O | – | inactive: -1.16%
CCN(CC)S(=O)(=O)c1cc(NC(=O)c2ccc(Br)s2)ccc1C | inconclusive: 6.31 µM [inhibitor, single point] | –
CC(C)n1nnnc1SCC(=O)NCCc1ccccc1 | inconclusive: 20.6 µM [activator, single point] | –
CC1(C)Cc2ccccc2C2=NNC(=O)C2=N1 | inconclusive: 7.08 µM [inhibitor, partial curve, poor fit] | –
COc1ccc2c(c1)c1ncn(CCc3ccccc3)c(=O)c1n2C | inconclusive: 4.61 µM [inhibitor, single point] | –
C=CCn1c(SCc2csc(C)n2)nc2sc3c(c2c1=O)CCCC3 | inconclusive: 7.94 µM [inhibitor, partial curve, poor fit] | –
CN(CC(=O)Nc1ccc(F)cc1F)S(=O)(=O)c1cccc2nsnc12 | – | inactive: 3.65% [at 46.1 µM]
CNC(=S)N1CCC(NC(=O)C(Cc2ccccc2)NC(C)=O)CC1 (stereo unspecified) | – | inactive: -7.7% [at 46.1 µM]
COc1ccc(-c2noc(CSc3nnc(Cc4ccccc4)n3-c3ccc(F)cc3)n2)cc1 | inconclusive: 35.5 µM [inhibitor, single point] | –
CN(C)S(=O)(=O)c1cccc(NC(=O)COc2ccc(C(=O)c3ccccc3)cc2)c1 | inconclusive: 14.1 µM [inhibitor, single point] | –
COCCN1Cc2cc(=O)n3c([nH]c4ccccc43)c2C1=N | – | inactive: 22.4%
COc1ccc(-n2c(SCC(=O)N3CCOCC3)nc(O)c(Cc3ccccc3)c2=O)cc1 | – | inactive: 5.45%
C=C(C)c1cccc(C(C)(C)NC(=O)NCc2ccc(OC)cc2)c1 | inconclusive: 0.259 µM [inhibitor, single point] | –
COc1ccc(C(=O)Nc2nc3c(s2)Cc2c(Br)ccc(OC)c2-3)cc1OC | – | inactive: -19.7% [at 46.1 µM]
COc1ccccc1CNC(=O)COc1ccc([N+](=O)[O-])cc1 | inconclusive: 6.31 µM [inhibitor, single point] | –
CCOc1ccccc1NC(=S)NC(=O)CCCOc1ccc(Cl)cc1Cl | inconclusive: 23.1 µM [inhibitor, single point] | –
Cc1ccc(Cn2c(CN3CCC(C(=O)O)CC3)cc3ccccc32)cc1 | inconclusive: 0.562 µM [inhibitor, full curve, poor fit] | –
COc1ccc(OCC(=O)Nc2c(C)ccc3nsnc23)cc1 | – | inactive: -4.96%
COC(=O)C1=C(C)N(CCc2ccc(OC)c(OC)c2)C(=O)/C1=C\N(C)C | – | inactive: 0.0218% [at 46.1 µM]
CC(C)c1ccc(S(=O)(=O)N2CCN(C(=O)CN3C(=O)NC4(CCCCC4)C3=O)CC2)cc1 | inconclusive: 6.31 µM [activator, single point] | –
CCN(CC)S(=O)(=O)c1cc(-c2ccc(=O)n(C(C)C(=O)Nc3cccc(C#N)c3)n2)ccc1C (stereo unspecified) | – | inactive: -29% [at 46.1 µM]
CSc1nc2nc(C)cc(-c3ccccc3)n2n1 | – | inactive: 4.38%
Cc1cc(-c2nnc(CCC(=O)N(CC3CCC3)CC3CCCO3)o2)no1 (stereo unspecified) | inconclusive: 5.01 µM [activator, single point] | –
